# Source: PubChem BioAssay AID493014 (National Center for Advancing Translational Sciences (NCATS), 2011)
# Some of the results follow. These are further read-outs of the screen, such as a control signal, another cell line or another target. No call is given for them. The list favours compounds with an active or inconclusive main result. Potencies come from curve fits of mixed quality, noted in brackets.
# Assay: qHTS Assay to Find Inhibitors of Chronic Active B-Cell Receptor Signaling
# Settings: ABC-DLBCL IkBa-CBG/CBR reporter, luminescence ratio (green luciferase fused to IkBa over red control in TMD8 lymphoma cells), 4 h
# Outline: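 Doxycycline induced both beetle luciferases in TMD8 lymphoma cells; IKK-driven degradation limits the IkappaBalpha-fused green signal, while red luminescence normalises for cell number and nonspecific effects. Compounds tested up to 46 uM, 4 hrs.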
# [1] = measured here: CBR red luminescence, cell number
# [2] = measured here: IkBa-CBG green luminescence
Compound,AC50 [1],AC50 [2]
O=C1CCC/C1=C/Nc1ccc(Cl)cc1,"12.6 µM [rising, partial curve, poor fit]",
N#C/C(=C(/O)COC(=O)c1ccccc1O)c1nc2ccccc2s1,"14.1 µM [falling, single point]",
COc1ccc(C(=O)NC2CCN(C(=S)Nc3ccc(C)c(C)c3)CC2)cc1,"16.4 µM [rising, single point]",
COc1ccc(N=Cc2nc(-c3ccccc3)oc2OC(=O)c2ccccc2)cc1,"13 µM [falling, partial curve]",
O=C(/C=C/c1ccco1)NC(=S)Nc1cccc(-c2nc3ccccc3o2)c1,"31.6 µM [rising, single point]","12.6 µM [falling, partial curve]"
CCCCC(=O)N=c1sc2cc([N+](=O)[O-])ccc2n1C,"11.2 µM [rising, partial curve, poor fit]",
Cc1ccccc1OCC(=O)N/N=C/c1ccccn1,"35.5 µM [falling, single point]",
O=C(O)CSc1nc2c(cnn2-c2ccccc2)c(=O)n1-c1ccc(Br)cc1,"16.4 µM [rising, partial curve, poor fit]",
C=CCNC(=O)CCCOc1cc(C)ccc1C,"29.1 µM [falling, single point]",
COC(=O)c1sc(-c2ccc(Cl)cc2)cc1NC(=O)COCC(=O)O,"14.1 µM [rising, single point]",
CC(C)n1c(SCC(N)=O)nc2c1c(=O)n(C)c(=O)n2C,"17.8 µM [rising, partial curve, poor fit]",
COc1ccc(N2CCN(C(=S)Nc3ccccc3)CC2)cc1,"11.2 µM [rising, partial curve, poor fit]",
COc1cccc(-c2cc(C(=O)Nc3ccc(OC)c(OC)c3)no2)c1,"1.78 µM [falling, full curve]",
Cc1ccc(NC(=O)Cc2ccc([N+](=O)[O-])cc2)c(Br)c1,"1.16 µM [rising, partial curve, poor fit]",
O=C(O)c1cccc(Nc2nc(Nc3ccccc3)nc(N3CCCC3)n2)c1,"1.78 µM [falling, partial curve]",
CN(C)CCCNc1ncnc2c1cnn2-c1ccccc1,"0.651 µM [rising, full curve, poor fit]",
CCCc1nc(SCC(=O)c2ccccc2)c2c(=O)n(C)c(=O)n(C)c2n1,"0.82 µM [rising, full curve]",
COc1cc(NC(=O)COc2ccccc2)c(OC)cc1NC(C)=O,"14.1 µM [falling, single point]",
CC(=O)c1cccc(N/C=C\c2nnnn2-c2ccc(F)cc2)c1,"23.1 µM [rising, partial curve, poor fit]",
Cc1c(/C=C/C(=O)c2cccs2)cnn1C,"29.1 µM [falling, single point]",
COc1ccc(C(=O)C2CCCN(Cc3ccc(C#CCCO)cc3)C2)cc1F (centres undefined),,"7.08 µM [rising, partial curve, poor fit]"
CC(=O)c1cccc(NC(=O)CSc2nnc3ccc(-c4ccc(C)cc4)nn23)c1,"35.5 µM [rising, single point]",

Compound,AC50 [1],AC50 [2]
COCc1cc(/C=N\NC(=O)Cc2ccc(Cl)cc2)ccc1OC,"2.59 µM [rising, full curve]",
CCn1nc(NC(=O)c2ccncc2)c2cc3ccccc3nc21,"18.4 µM [falling, single point]","18.4 µM [rising, partial curve, poor fit]"
Cc1ccc2nc(SCC(=O)N3CCOCC3)[nH]c2c1,"1.64 µM [rising, partial curve, poor fit]",
O=C(Nc1ccc(Cl)cc1)OCc1ccccn1,"14.6 µM [falling, single point]",
CCN(CC)S(=O)(=O)c1cc(NC(=O)COC(=O)CCC(=O)c2cccs2)ccc1C,"3.16 µM [rising, single point]",
N#Cc1cc([N+](=O)[O-])ccc1NC(=O)COC(=O)C12CC3CC(CC(C3)C1)C2,"3.98 µM [rising, partial curve]",
COc1ccc(OCC(=O)Nc2c3c(nn2C(C)(C)C)CSC3)cc1,"25.1 µM [falling, single point]",
COc1ccc(Nc2nnc(-c3ccc(O)cc3)c3ccccc23)cc1C(N)=O,"15.8 µM [falling, partial curve, poor fit]",
Cc1ccc(C(=O)Oc2cccc(NC(=O)c3ccco3)c2)cc1S(=O)(=O)N1CCC(C)CC1,"20.6 µM [falling, partial curve]",
CNC(=S)Nc1cc2oc3ccccc3c2cc1OC,"15.8 µM [rising, partial curve, poor fit]",
CCn1c(-c2csc(C(C)C)c2)n[nH]c1=S,"20.6 µM [rising, single point]",
COc1ccc(NC(=S)N/N=C/c2ccc(F)c(F)c2)cc1,"35.5 µM [rising, single point]","35.5 µM [falling, partial curve, poor fit]"
CC1CN/C(=C\C(=O)c2ccccc2)C(=O)N1 (centres undefined),"2.82 µM [falling, full curve]",
Cc1onc(-c2c(F)cccc2Cl)c1C(=O)Nc1nc2ccccc2[nH]1,"14.6 µM [falling, partial curve, poor fit]",
CCN(CC)C(=O)COc1ccc(-c2nnc(N3CCCCC3)c3ccccc23)cc1,"6.51 µM [rising, single point]",
NNC(=O)c1cc(-c2cccs2)nc2ccccc12,"3.16 µM [falling, single point]","35.5 µM [falling, single point]"
CC(=O)c1cccc(NC(=O)c2cc(-c3ccc(C)cc3)on2)c1,"0.82 µM [falling, partial curve, poor fit]",
O=C(COc1cccc2cccnc12)Nc1nccs1,"2.51 µM [falling, full curve]",
O=C(CCC1CCCC1)NCCS(=O)(=O)N1CCN(c2ccccc2F)CC1,"6.51 µM [rising, single point]",
COc1ccc(NC(=O)C2CCN(c3cc(C)nc(-c4ccccc4)n3)CC2)cc1,"2.91 µM [falling, full curve]",
CN(C)c1ccnc(SCc2ccccc2Cl)c1C#N,"35.5 µM [falling, single point]",
c1ccc(-c2nc(N3CCOCC3)c3ccccc3n2)nc1,"29.1 µM [falling, single point]",

# 3 compounds from above, sorted by SMILES length, low to high.
Compound,AC50 [1],AC50 [2]
CC1CN/C(=C\C(=O)c2ccccc2)C(=O)N1 (centres undefined),"2.82 µM [falling, full curve]",
COc1cc(NC(=O)COc2ccccc2)c(OC)cc1NC(C)=O,"14.1 µM [falling, single point]",
O=C(/C=C/c1ccco1)NC(=S)Nc1cccc(-c2nc3ccccc3o2)c1,"31.6 µM [rising, single point]","12.6 µM [falling, partial curve]"

# Carrying on:

Compound,AC50 [1],AC50 [2]
CCc1cc2c(=O)oc(-c3ccccc3F)nc2s1,"7.08 µM [falling, partial curve]",
COc1ccc(Cl)cc1NC(=O)/C=C\C(=O)O,"5.17 µM [falling, partial curve, poor fit]",
CC(=O)c1cccc(NC(=O)CSC(=O)c2ccccc2)c1,"16.4 µM [falling, partial curve, poor fit]",
Nc1cc2sc(-c3ccc(C(=O)O)cc3)nc2cc1Cl,"0.0366 µM [falling, full curve]",
O=S(=O)(c1cccc(Cn2nnc(-c3ccc(F)cc3)n2)c1)N1CCOCC1,"35.5 µM [falling, single point]",
O=C(Nc1ccccc1)c1ccc2snnc2c1,"35.5 µM [falling, single point]",
CCc1sc(Nc2ccc(Cl)cc2)nc1-c1cc2cccc(OC)c2oc1=O,"15.8 µM [falling, partial curve]",
COC(=O)c1ccc(COc2ccc(/C=N/Nc3cccc(C(=O)O)c3)cc2)cc1,"11.2 µM [falling, partial curve, poor fit]",
CC(=O)N/C(=C\c1ccccc1)C(=O)OCc1ccc(C)cc1,"0.447 µM [rising, partial curve, poor fit]",
O=C(Nc1ccc(F)cc1)OCCOc1ccc(Br)cc1,"11.2 µM [rising, partial curve, poor fit]",
O=c1oc2ccccc2nc1/C=C(O)/C=C\c1ccccc1,"9.2 µM [falling, partial curve]",
COc1ccc(S(=O)(=O)n2cnc3cc(C)c(C)cc32)cc1C,"25.9 µM [falling, single point]",
NC(N)=Nc1nc2ccc(Br)cc2c(=O)[nH]1,"20 µM [rising, single point]",
CCN(CC)S(=O)(=O)c1cc(NS(=O)(=O)c2cccc(Cl)c2)ccc1C,"13 µM [falling, partial curve, poor fit]","5.17 µM [rising, partial curve, poor fit]"
COc1ccc(-c2nc3c(Br)c(N)c(Br)cc3o2)cc1,"0.316 µM [rising, full curve, poor fit]",
O=S(=O)(c1ccc2c(c1)OCCO2)N1CCN(Cc2ccc3c(c2)OCO3)CC1,"0.411 µM [falling, partial curve, poor fit]",
COC(=O)c1cc(C)nc2c1C(=O)C(=O)C=C2N1CCOCC1,"7.08 µM [falling, full curve, poor fit]",
O=C(CCC(=O)N1CCN(c2ccc(O)cc2)CC1)c1cccs1,"6.31 µM [rising, single point]",
CCN(CC)CCN1C(=O)c2oc3ccccc3c(=O)c2C1c1ccccc1 (centres undefined),"12.6 µM [falling, partial curve, poor fit]",
CCOC(=O)CSc1nc(N)c(C#N)c(-c2cccs2)c1C#N,"7.08 µM [falling, full curve, poor fit]",
